{
  "source": "patent US20210355500A1",
  "about": "“BACTERIALLY SECRETED IMMUNOSTIMULANTS AND METHODS TO PROTECT AGAINST PATHOGENS” (Washington State University, priority 2020, published 2021)",
  "key": {"[1]": {"tested_on": "StPINII, StPR1, StWRKY40, StOsmotin2", "test": "qRT-PCR of defense marker genes in potato leaves and roots after StPep1 root immersion", "format": "in vivo, Russet Burbank potato", "conditions": "100 nM StPep1 root immersion; 0, 2, 6, 12 hours; vs water"}, "[2]": {"tested_on": "StPep1-induced marker genes", "test": "qRT-PCR of 8 selected StPep1-induced marker genes in potato roots and leaves", "format": "in vivo, Russet Burbank potato", "conditions": "100 nM StPep1 root soaking vs water; 6 hours"}},
  "note": "“Also recorded” adds a separate entry of the source. Not every detail of the peptide structures is certain; ends, links or a residue may be inferred. Where a SMILES comes first, the peptide text is derived from it.",
  "data": [
    {"smiles": "CC(C)[C@H](NC(=O)[C@H](CCCCN)NC(=O)[C@@H]1CCCN1C(=O)[C@H](CCCNC(=N)N)NC(=O)[C@H](CO)NC(=O)[C@@H]1CCCN1C(=O)[C@@H]1CCCN1C(=O)[C@H](CCCNC(=N)N)NC(=O)CNC(=O)[C@H](CCCNC(=N)N)NC(=O)[C@H](CCCNC(=N)N)NC(=O)[C@H](CCC(=O)O)NC(=O)[C@@H](NC(=O)[C@H](C)N)[C@@H](C)O)C(=O)NCC(=O)N[C@@H](CO)C(=O)NCC(=O)N1CCC[C@H]1C(=O)N1CCC[C@H]1C(=O)N1CCC[C@H]1C(=O)N[C@@H](CCC(N)=O)C(=O)N[C@@H](CC(N)=O)C(=O)N[C@@H](CC(N)=O)C(=O)O", "note": "[StPep1] (H-ATERRGRPPSRPKVGSGPPPQNN-OH)", "values": [
      {"measurement": "expression of StPINII, StOsmotin2, StPR1 and StWRKY40 in leaves", "setting": "[1]", "value": "increased expression; also recorded: induced expression"},
      {"measurement": "expression of StPINII, StOsmotin2, StPR1 and StWRKY40 in roots", "setting": "[1]", "value": "none of these genes were differentially regulated; also recorded: not in roots"},
      {"measurement": "expression of the 8 selected genes in leaves", "setting": "[2]", "value": "varied"},
      {"measurement": "expression of the 8 selected genes in roots", "setting": "[2]", "value": "seven of the eight genes were up-regulated"}
    ]}
  ]
}
